Many values rest on one well or one pass, so single values are uncertain.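 All cells are established human bladder cancer lines, one derived from a patient-derived xenograft. A luminescent ATP assay measured viability as percent inhibition relative to vehicle across seven dilutions. The paper rates scores above 59 very active, 30–59 active, 21–29 semi-active, 9–20 low active, below 9 inactive.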
Key:
Assay in all cases: drug sensitivity score DSS3 (score 0-100); higher = more sensitive; extreme values may be limits of the assay
Details in all cases: culture: 3D, ultra-low attachment; treatment time: 5 days
SW780 = test system: SW780
UM-UC-15 = test system: UM-UC-15
BC8149 = test system: BC8149
UM-UC-6 = test system: UM-UC-6
TCCSUP = test system: TCCSUP
UM-UC-5 = test system: UM-UC-5
UM-UC-14 = test system: UM-UC-14
UM-UC-12 = test system: UM-UC-12
UM-UC-18 = test system: UM-UC-18
5637 = test system: 5637
UM-UC-17 = test system: UM-UC-17
T-24 = test system: T-24
UM-UC-3 = test system: UM-UC-3
UM-UC-1 = test system: UM-UC-1
SCaBER = test system: SCaBER
J82 = test system: J82
UM-UC-9 = test system: UM-UC-9

| Compound | drug sensitivity score DSS3 (SW780) | drug sensitivity score DSS3 (UM-UC-15) | drug sensitivity score DSS3 (BC8149) | drug sensitivity score DSS3 (UM-UC-6) | drug sensitivity score DSS3 (TCCSUP) | drug sensitivity score DSS3 (UM-UC-5) | drug sensitivity score DSS3 (UM-UC-14) | drug sensitivity score DSS3 (UM-UC-12) | drug sensitivity score DSS3 (UM-UC-18) | drug sensitivity score DSS3 5637 | drug sensitivity score DSS3 (UM-UC-17) | drug sensitivity score DSS3 (T-24) | drug sensitivity score DSS3 (UM-UC-3) | drug sensitivity score DSS3 (UM-UC-1) | drug sensitivity score DSS3 (SCaBER) | drug sensitivity score DSS3 (J82) | drug sensitivity score DSS3 (UM-UC-9) |
| --- | --- | --- | --- | --- | --- | --- | --- | --- | --- | --- | --- | --- | --- | --- | --- | --- | --- |
| CCCCCCCCCCCCCC(=S)NCCCC[C@H](NC(=O)OCc1ccccc1)C(=O)Nc1ccccc1 [Thiomyristoyl] (max dose 10000 nM) | 0 | 0 | 0 | 0 | 0 | 0 | 0 | 25.3 | 0 | 0 | 0 | 14.9 | 0 | 0 | 7.93 | – | – |
| C=CC(=O)N1CCC(CNc2ncnc(N)c2-c2ccc(Oc3ccccc3)cc2)CC1 [Evobrutinib] (max dose 10000 nM) | 0 | 0 | 0 | – | 0 | 0 | 2.27e-05 | 0 | 0 | 0 | 0 | 0.237 | 0 | 0 | 0 | 0 | 0 |
| CC(=O)Nc1cccc(-n2c(=O)n(C3CC3)c(=O)c3c(Nc4ccc(I)cc4F)n(C)c(=O)c(C)c32)c1 (max dose 10000 nM) | 0.654 | 21.7 | 10.4 | 14.2 | 28.6 | 68.8 | 19.3 | – | 0.722 | 37.3 | 0.334 | 21.3 | 29.5 | 27.1 | 55.5 | 7.26 | 2.12 |
| CS(=O)(=O)N1CCN(Cc2cc3nc(-c4cccc5[nH]ncc45)nc(N4CCOCC4)c3s2)CC1 [GDC-0941] (max dose 10000 nM) | 10.6 | 0 | 34.9 | 33.6 | 61 | 27.4 | 35.4 | 37.2 | 53.9 | 60.3 | 34.4 | 17.2 | 32.9 | 39.5 | 37.7 | – | 2.27 |
| CC(C)[C@@H](CS(=O)(=O)C(C)C)N1C(=O)[C@@](C)(CC(=O)O)C[C@H](c2cccc(Cl)c2)[C@H]1c1ccc(Cl)cc1 [AMG232] (max dose 10000 nM) | 18 | 0 | 12 | 0 | 6.76 | 0 | 4.3 | 13.6 | 0 | 12.4 | 7.63 | 0 | 10.1 | 6.39 | 5.55 | – | 0 |
| CC[C@@H]1C(=O)N(C)c2cnc(Nc3ccc(C(=O)N[C@H]4CC[C@H](N5CCN(CC6CC6)CC5)CC4)cc3OC)nc2N1C(C)C [Volasertib (BI 6727)] (max dose 10000 nM) | 23.1 | 0 | 34.1 | 37.4 | 54.8 | 17.3 | 15.6 | 34.6 | 20 | 42.3 | 48.7 | 0.734 | 30.1 | – | 32.8 | – | – |
| C[C@@H]1CC(=O)Nc2cccc(-c3ccc4c(c3)c(-c3cnn(C)c3)nn4C)c2N1 [CPI-637] (max dose 10000 nM) | 0 | 18.2 | 0 | – | 0 | 0 | 0 | 0 | 0 | 0 | 0 | 0 | 0 | 1.05 | 0 | 0 | 0.691 |
| COc1ccc(NS(=O)(=O)c2ccc(N)cc2)nn1 [Sulfamethoxypyridazine] (max dose 10000 nM) | – | 0 | 0 | – | 1.23 | 0 | 0 | 0 | 0 | 1.82 | 0 | 0 | 0 | 0 | 0 | 0 | 0 |
| C[C@]1(O)C[C@@H](c2nc(-c3ccc4ccc(-c5ccccc5)nc4c3)c3c(N)nccn32)C1 [OSI-906 (Linsitinib)] (max dose 10000 nM) | 0 | 0 | 0 | 0 | 2.44 | 0 | 0.603 | – | 0 | 1.76 | 0 | 6.19 | 5.02 | 0 | 0.58 | 0 | 0 |
| CO[C@H]1C[C@@H]2CC[C@@H](C)[C@@](O)(O2)C(=O)C(=O)N2CCCC[C@H]2C(=O)O[C@H]([C@H](C)C[C@@H]2CC[C@@H](OC(=O)C(C)(CO)CO)[C@H](OC)C2)CC(=O)[C@H](C)/C=C(\C)[C@@H](O)[C@@H](OC)C(=O)[C@H](C)C[C@H](C)/C=C/C=C/C=C/1C (max dose 10000 nM) | – | 0 | 27.1 | 12.4 | 42.5 | 26.5 | 21.2 | 16.8 | 23.9 | 35.7 | 1.72 | 0 | 25.1 | 25 | 21.6 | – | – |
| Cn1c(=O)c2c(ncn2CC(O)CO)n(C)c1=O (stereo unspecified) [Dyphylline] (max dose 10000 nM) | 0 | 0 | 0 | – | 0.188 | 0 | 0 | 0 | 0 | 0.0166 | 0 | 0 | 0 | 0 | 0.571 | 0 | 0 |
| CCOc1cc2ncc(C#N)c(Nc3ccc(F)c(Cl)c3)c2cc1NC(=O)/C=C/CN(C)C [Pelitinib (EKB-569)] (max dose 10000 nM) | 1.9 | 18.5 | 19.2 | 26.3 | 25.1 | 14.8 | 12.5 | 45.6 | 26.4 | 50.2 | 3.29 | 38.6 | 24.6 | 2.38 | 46.2 | – | 19.1 |
| Cc1c(C(=O)N2CCOc3ccc(-c4ccc(N)nc4)cc3C2)ccc(S(C)(=O)=O)c1F [XL388] (max dose 10000 nM) | 0 | 0 | 7.47 | – | 4.04 | 2.21 | 0.829 | 1.16 | 0.412 | 0 | 0 | 0 | 0 | 0 | 1.16 | 0 | 0 |
| C[C@@H]1Cc2c([nH]c3ccccc23)[C@@H](c2c(F)cc(/C=C/C(=O)O)cc2F)N1CC(C)(C)F [AZD9496] (max dose 10000 nM) | 14.9 | 0 | 0 | 0 | 6.18 | 0 | – | 0 | – | 0 | 0 | 2.54 | 0 | – | 0 | 0 | 0 |
| C[C@@H](OC[C@@]1(c2ccccc2)CC[C@]2(CCC(=O)N2)CN1)c1cc(C(F)(F)F)cc(C(F)(F)F)c1 [Rolapitant] (max dose 10000 nM) | 0 | 3.27 | 6.02 | – | 26.8 | 0.648 | 0 | 0 | 10.2 | 17.5 | 16.1 | 0 | 0 | – | 9.58 | 0.422 | 0 |
| Cc1ccc(-n2nc(C(C)(C)C)cc2NC(=O)NCc2cc(F)ccc2Oc2ccc3c(cnn3CCO)c2)cc1 [Pexmetinib (ARRY-614)] (max dose 10000 nM) | 0 | 1.63 | 0 | 5.1 | 9.96 | 0 | 2.27 | – | 0 | 0 | 0.604 | 0 | 1.03 | 3.64 | 0 | 0 | 0 |
| O=C1NC(=O)[C@@H](c2cn3c4c(cccc24)CCC3)[C@@H]1c1c[nH]c2ccccc12 [Tivantinib (ARQ 197)] (max dose 10000 nM) | 22.7 | 34.1 | 24.6 | 36.5 | 44 | – | 19.4 | 10.2 | 13.3 | 49.5 | 34.2 | 13.4 | 26.3 | 39.9 | 24.3 | – | – |
| COc1cc([C@@H]2c3cc4c(cc3[C@H](O)[C@H]3COC(=O)[C@@H]23)OCO4)cc(OC)c1OC [Picropodophyllin (PPP)] (max dose 10000 nM) | 3.34 | 0 | 18.9 | 21.5 | 21.4 | 0 | 10.1 | – | 0 | 28 | 16.3 | 3.68 | 10 | 13.7 | 15.1 | 0.0776 | 5.58 |
| NC(=O)NO [hydroxyurea] (max dose 10000 nM) | 0.18 | 0 | 1.47 | 0 | 2.02 | 0 | 0 | – | 0 | 0.404 | 0 | 0 | 0.0128 | 0 | 0.00478 | 1.15 | 0 |
| CC(C)N(CCCNC(=O)Nc1ccc(C(C)(C)C)cc1)C[C@H]1O[C@@H](n2cc(Br)c3c(N)ncnc32)[C@H](O)[C@@H]1O [SGC 0946] (max dose 10000 nM) | 0 | 0 | 0.137 | 0 | 0 | 0 | 0 | – | 0 | 0 | 0 | 0 | 0 | 0 | 0 | 0 | 0 |
| CN(C)C(=O)Nc1cccc(-c2ccc(N(C)C)cc2)c1 [Atglistatin] (max dose 10000 nM) | 0.225 | 1.34 | 0.049 | 0 | 1 | 0 | 0.673 | 0 | 0 | 0 | 0.138 | 0 | 0.311 | – | 0 | 0 | 0 |
| Clc1ccc(Nc2nnc(Cc3ccncc3)c3ccccc23)cc1 [Vatalanib (PTK787) 2HCl] (max dose 10000 nM) | 0 | 0 | 4.47 | – | – | 0 | 0.547 | 0 | 0 | 0 | 0 | 6.44 | 8.28 | 0 | 0 | 9 | 0.795 |
| Cc1cnc(Nc2ccc(OCCN3CCCC3)cc2)nc1Nc1cccc(S(=O)(=O)NC(C)(C)C)c1 (max dose 10000 nM) | 0 | 0 | 1.21 | 0 | 3.44 | 0 | 0 | 0 | 0.0756 | 2.03 | 0 | 0 | 0.743 | – | 0.979 | 0 | 0 |
| Cc1cc(CS(=O)(=O)c2ccccc2)cc(OCc2ccc(CN3CCC[C@@H]3CO)cc2)c1 [PF-543] (max dose 10000 nM) | 0 | 2.36 | 0 | – | 0.196 | 0 | 0 | 0 | 0 | 0 | 0 | 0 | 0 | – | 0 | 0 | 0.412 |

A different layout for part of the listing above:
Compound | drug sensitivity score DSS3 (SW780) | drug sensitivity score DSS3 (UM-UC-15) | drug sensitivity score DSS3 (BC8149) | drug sensitivity score DSS3 (UM-UC-6) | drug sensitivity score DSS3 (TCCSUP) | drug sensitivity score DSS3 (UM-UC-5) | drug sensitivity score DSS3 (UM-UC-14) | drug sensitivity score DSS3 (UM-UC-12) | drug sensitivity score DSS3 (UM-UC-18) | drug sensitivity score DSS3 5637 | drug sensitivity score DSS3 (UM-UC-17) | drug sensitivity score DSS3 (T-24) | drug sensitivity score DSS3 (UM-UC-3) | drug sensitivity score DSS3 (UM-UC-1) | drug sensitivity score DSS3 (SCaBER) | drug sensitivity score DSS3 (J82) | drug sensitivity score DSS3 (UM-UC-9)
Cc1cnc(Nc2ccc(OCCN3CCCC3)cc2)nc1Nc1cccc(S(=O)(=O)NC(C)(C)C)c1 (max dose 10000 nM) | 0 | 0 | 1.21 | 0 | 3.44 | 0 | 0 | 0 | 0.0756 | 2.03 | 0 | 0 | 0.743 | – | 0.979 | 0 | 0
Cc1cc(CS(=O)(=O)c2ccccc2)cc(OCc2ccc(CN3CCC[C@@H]3CO)cc2)c1 [PF-543] (max dose 10000 nM) | 0 | 2.36 | 0 | – | 0.196 | 0 | 0 | 0 | 0 | 0 | 0 | 0 | 0 | – | 0 | 0 | 0.412

Reference: the supplement of paper PMC7646827
